Experimental data from patent publication US20080253962A1 (Bristol-Myers Squibb, published 2008).
These are yes or no findings as the source states them, for the method shown. Some entries that bind do so weakly or less than the wild type.

Columns and labels:
[1] = target: T1, IRTA4 protein on the surface of the B cell tumor line Daudi (human) (UniProt Q96LA5); assay: flow cytometry on Daudi cells (FIG. 8B)
T1 sequence: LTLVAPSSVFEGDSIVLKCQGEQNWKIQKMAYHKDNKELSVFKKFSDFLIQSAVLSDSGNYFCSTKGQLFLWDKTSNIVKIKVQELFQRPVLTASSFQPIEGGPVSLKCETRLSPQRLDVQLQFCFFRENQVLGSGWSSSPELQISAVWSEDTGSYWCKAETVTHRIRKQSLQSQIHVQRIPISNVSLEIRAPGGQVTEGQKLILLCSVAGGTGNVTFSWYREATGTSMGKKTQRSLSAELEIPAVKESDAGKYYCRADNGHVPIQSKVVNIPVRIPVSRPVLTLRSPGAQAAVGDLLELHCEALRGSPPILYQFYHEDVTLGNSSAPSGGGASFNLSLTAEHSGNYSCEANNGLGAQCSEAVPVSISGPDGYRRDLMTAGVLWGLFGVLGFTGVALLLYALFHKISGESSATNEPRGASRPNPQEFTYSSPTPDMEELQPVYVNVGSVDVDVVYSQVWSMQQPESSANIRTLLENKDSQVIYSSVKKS

[2] = target: T1, IRTA4 protein on the surface of the B cell tumor line Daudi (human); assay: flow cytometry on Daudi cells, labelled anti-human secondary antibody
[3] = target: T1, IRTA4 protein on the surface of the B cell tumor line Daudi (human); assay: flow cytometry on Daudi cells, phycoerythrin anti-human secondary antibody

Measured: binding

B1: 13B1 human monoclonal antibody (antibody, V domains shown)
VH: QVQLVQSGAEVKKPGASVKVSCKASGYNFNSYDISWVRQAAGQGLEWMGWMNPNSGYTSYAQKFQGRVTMTWNTSISTAYMELSSLRSEDSAVYYCAREGIVGAIGWFDPWGQGTLVTVSS
VL: DIQMTQSPSSVSASVGDRVTITCRASQGISSWLAWYQHKPGKAPKLLIYAASSLQSGVPSRFSGSGSGTDFTLTISSLQPEDFATYYCQQANSFPLTFGGGTKVEIK
notes: Hybridoma-derived fully human IgG with kappa light chain from KM mice; also called anti-IRTA4 HuMAb 13B1
binds: all assays above
